Results taken from PubChem BioAssay AID1347423 (Functional Genomics Laboratory (NCATS/FGL), 2020).
Among all 52,000 sequences or so, about 210 (0.4%) were called active.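 Rule for the calls: active = gene whose silencing raises cell survival under the drug, median off-target-corrected z-score across its silencing RNAs 2 or more; inactive = the rest.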 The list shows a part of the results.

Test: Resistance to Poly (ADP-Ribose) Polymerase inhibitor: Gene Identification via Genome-wide siRNA Screen
Details: mouse BRCA2 R2336H ES cells, olaparib, CellTiter-Glo viability; stronger effect = higher value
Summary of the method: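 Genome-wide siRNA screen (3 siRNAs/gene, 20 nM) in mouse ES cells carrying hypomorphic BRCA2 R2336H; olaparib 500 nM added 48 h post-transfection, CellTiter-Glo viability 72 h later. Normalized to plate-median negative control; MAD z-scores, gene median, seed-adjusted.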

Row | Sequence | z-score
1 | GGUGGAGCAGAUGAAGAACTT against 1500019G21Rik | inactive: 0.329
2 | GGCUCACAUUGUAACUUAGTT against 4833428E21Rik | inactive: 1.16
3 | GGCAUGAACCAUUCAGUAATT against Ifnar1 | inactive: -1.77
4 | GGUUACUGGGUGAUAAGAATT against Mipep | inactive: 1.1
5 | CCACAAUCUGUUAACUUUGTT against Serpinb10 | inactive: 0.163
6 | GGAGUUUGAGACACUCUGCTT against Apg4d | inactive: 0.266
7 | GGAAAUUCACACAGAUGAATT against Pip3ap | inactive: 2.21
8 | GGGAAAGGUGUUCCAGUUATT against Chchd7 | inactive: -1.85
9 | CGGACAAGAUAAAGUGUGUTT against 4930504O13Rik | inactive: 0.5
10 | GGACUGCACAGUUAUGGUGTT against Coro1a | inactive: 1.2
11 | GGAAAGAUUCCGAACAAUUTT against Rab8b | inactive: -1.25
12 | GGCAAGAGUGAAUUUAAGATT against Nt5e | inactive: -0.341
13 | GGAUGAGAGAAAGUUACCCTT against Bzrpl1 | inactive: 1.79
14 | GGCCUCUUACAAAGUGAGATT against 2610524B01Rik | inactive: -0.53
15 | GGCUAGCACCAAAUUCUUGTT against Fbxo40 | inactive: -0.741
16 | GCAAAUGACUUGCCCAAAUTT against Zfp639 | inactive: -2.39
17 | GGCUCUCUUUAGAACAGACTT against Rad17 | inactive: -0.663
18 | GGAUCUCCGCUCAUCAGAUTT against Slc14a2 | inactive: 1.21
19 | GAAGAGUCCAACAACCAAATT against Mrpl53 | inactive: -0.149
20 | GCAUCAUCGAAUAAUCAUCTT against Egf | inactive: 1.65
21 | CGGAGCUCAAACAUCUGAUTT against 1810035L17Rik | inactive: -2.28
22 | GGAGAAAUGCCAUUGCGUCTT against Wnt3 | inactive: -0.218
23 | CCCACUUACUUUUGAUGUUTT against Ube1x | inactive: -3.41
24 | GCUUAAUCCGGCUACCACUTT against Sepn1 | inactive: -0.555
25 | CCUCAAGUUUGCCAUCAGGTT against Hps4 | inactive: 1.94
26 | GCCAGUCAGAUGUACAGUCTT against Pbx1 | inactive: -1.09

Another view of part of the listing above:
Row	Sequence	z-score
1	GGUGGAGCAGAUGAAGAACTT against 1500019G21Rik	inactive: 0.329
2	GGCUCACAUUGUAACUUAGTT against 4833428E21Rik	inactive: 1.16
3	GGCAUGAACCAUUCAGUAATT against Ifnar1	inactive: -1.77
4	GGUUACUGGGUGAUAAGAATT against Mipep	inactive: 1.1
5	CCACAAUCUGUUAACUUUGTT against Serpinb10	inactive: 0.163
6	GGAGUUUGAGACACUCUGCTT against Apg4d	inactive: 0.266
7	GGAAAUUCACACAGAUGAATT against Pip3ap	inactive: 2.21
8	GGGAAAGGUGUUCCAGUUATT against Chchd7	inactive: -1.85
9	CGGACAAGAUAAAGUGUGUTT against 4930504O13Rik	inactive: 0.5
10	GGACUGCACAGUUAUGGUGTT against Coro1a	inactive: 1.2
11	GGAAAGAUUCCGAACAAUUTT against Rab8b	inactive: -1.25
12	GGCAAGAGUGAAUUUAAGATT against Nt5e	inactive: -0.341
13	GGAUGAGAGAAAGUUACCCTT against Bzrpl1	inactive: 1.79
14	GGCCUCUUACAAAGUGAGATT against 2610524B01Rik	inactive: -0.53
15	GGCUAGCACCAAAUUCUUGTT against Fbxo40	inactive: -0.741
16	GCAAAUGACUUGCCCAAAUTT against Zfp639	inactive: -2.39
17	GGCUCUCUUUAGAACAGACTT against Rad17	inactive: -0.663
18	GGAUCUCCGCUCAUCAGAUTT against Slc14a2	inactive: 1.21
19	GAAGAGUCCAACAACCAAATT against Mrpl53	inactive: -0.149
20	GCAUCAUCGAAUAAUCAUCTT against Egf	inactive: 1.65
21	CGGAGCUCAAACAUCUGAUTT against 1810035L17Rik	inactive: -2.28
22	GGAGAAAUGCCAUUGCGUCTT against Wnt3	inactive: -0.218
23	CCCACUUACUUUUGAUGUUTT against Ube1x	inactive: -3.41
24	GCUUAAUCCGGCUACCACUTT against Sepn1	inactive: -0.555
26	GCCAGUCAGAUGUACAGUCTT against Pbx1	inactive: -1.09

(list continues)

Row | Sequence | z-score
27 | GCGAAAUCAACAGUCAAUUTT against A730011L11 | inactive: 0.258
28 | CCAGAUGUGAUCUUAAAACTT against Zfp334 | inactive: -0.303
29 | GCUGGUUAAGUCCUAUCACTT against Klrk1 | inactive: 1.43
30 | GGACAAUAAUGACAACAAATT against D230019K20Rik | inactive: 1.38
31 | GCUCCUAUGGCAACAUCGUTT against Olfr303 | inactive: 0.615
32 | CCCGGGUCAUCAUUUUAAUTT against B830017H08Rik | inactive: -0.175
33 | GGUUGACAACACAUCUGCUTT against AI788959 | inactive: 0.559
34 | CCACUGCUGUUAGGCUUGATT against Olfr810 | inactive: -2.58
35 | GGUGGAAAGCAAGAAACACTT against Siat8f | inactive: -0.842
36 | GGCAGACGGUAAUAAACAUTT against AI507211 | inactive: 1.51
37 | CGAAUAUCAAAGGAUACUUTT against 0610041E09Rik | inactive: -0.433
38 | CGUUCUUUCAAGAAAGCAATT against 1110014K08Rik | inactive: -0.951
39 | CCAGCAGAUAUUCUUACGGTT against Grb2 | inactive: 3.42
40 | GCAGUCAAUGAACAUGUUGTT against 2900064A13Rik | inactive: 0.26
41 | GGAAGAAGAUGAAGACAUUTT against Trp53inp1 | inactive: -1.3
42 | GGAAAACCGAGAAAAAAUGTT against Xpa | inactive: -0.463
43 | GGACAUCUACACCAUUUGGTT against 2810021B07Rik | inactive: -1.09
44 | GGAACAAUGCCAGAAGUGUTT against 2510004L20Rik | inactive: -0.866
45 | CGGCGACACCAUAAUUUGGTT against Il1r1 | inactive: -1.15
46 | CCGAGCACUCACUGUUUUATT against Ryr3 | inactive: 0.234
47 | GGAGGAAGAUGGUCAUUCCTT against Ncoa6ip | inactive: -0.808
48 | CCUAUAUGCGCUAUUUGAATT against 4732465J09Rik | inactive: 0.557
49 | GCCGAGAAUGCUGAGUUCATT against Hmox1 | inactive: -0.0262
50 | CCUACGACUUCUACUACAUTT against Chst8 | inactive: -0.825
51 | GAUAACAAGCAUCUCAUGUTT against Krtap16-8 | inactive: 1.57
52 | GGGAAAAGUGGUAAAUUAUTT against Shprh | inactive: -0.825

Row | Sequence | z-score
53 | GGUGAUCCUUCUUUUUUACTT against Sgol1 | inactive: -2.31
54 | GGCUAUUUUGGCUUGUAAATT against Jam2 | inactive: 0.291
55 | GACAAAGCCUAGAAUCAAUTT against Olfr402 | inactive: -1.43
56 | GCACUUUGUAUAUCUUUCCTT against Btd | inactive: 0.981
57 | CGGCAAGUUUAAGAAGGACTT against Uqcr | inactive: 0.403
58 | CCACAAAUGAGAACUUCCCTT against D4Ertd22e | inactive: 0.683
59 | GGAACUCUCAAGAGAGAAUTT against 5730551F12Rik | inactive: 0.885
60 | GGAAGCAACUUGGAAUUUGTT against Catna3 | inactive: -0.074
61 | GGAAGAAGUGGAUGCUGGATT against AV273951 | inactive: 0.444
62 | GGUACCAGACCUCAUAGUUTT against 4732496G21Rik | inactive: -0.169
63 | CGCACAUGUAGUUAAUAAATT against 2400003L07Rik | inactive: 1.18
64 | CCCAGAAGAGGUUACAUUUTT against Cd200r4 | inactive: -0.745
65 | GGGCUAUGAACCUGAAGAGTT against 4121402D02Rik | inactive: -2.29
66 | AUCUGUUCCGGAGGAAUUUTT against 1700029I15Rik | inactive: -0.265
67 | CCUACUUGGACAUGAACCGTT against Vps18 | inactive: 0.553
68 | GGCUAGCAGUUCAGUGGAATT against Pex11a | inactive: -0.831
69 | GGUGUAUCGGAACAGUGAGTT against 2610034H20Rik | inactive: -2.04
70 | CGGUAUCAAGUGGUACUACTT against Angpt2 | inactive: 0.565
71 | GGUAUAAGAAGAGAAUCCUTT against 1700128F08Rik | inactive: 0.648
72 | GGAAACUGGUGCUACAUUATT against Usp10 | inactive: 0.171
73 | CCAUGAGCACCUACUAUGCTT against C330014O21Rik | inactive: -0.0142
74 | GGUCAUGGAUGUGCACGAUTT against Krt1-14 | inactive: 1.55
75 | CCUAGAACUUAAAUGGACATT against 1700013N18Rik | inactive: 1.91
76 | GGAAAAUUCCUGUGAAUGATT against Bcor | inactive: -0.187
77 | CCGUGAGAUAACUAUAGCUTT against Tsg-5 | inactive: 0.648
78 | GGUGCUUAAUUCCUGUCCCTT against Ggn | inactive: -0.173

Row | Sequence | z-score
79 | CCACCUAUCAGGAUUCAACTT against 0610009D07Rik | inactive: -1.64
80 | GGAUGAGCUAGAGAUGACCTT against Kcnip1 | inactive: -1.07
81 | CCUCAGAACAAAUGAAAAUTT against Nlk | inactive: -0.338
82 | GCAGGUGAAAGUGCAGAUCTT against Timm9 | inactive: -1.57
83 | CGAUCAAAAGGAUUUCAUCTT against Gjb4 | inactive: 0.52
84 | GGAGUGUAUAUUAUUGGUGTT against Olfr44 | inactive: -0.237
85 | GCACAUACAGAGCUCGUCUTT against Zfp535 | inactive: -1.92
86 | GGACAUCCAACCGUACAUGTT against Ccnd2 | inactive: 0.925
87 | GGGUGAUAAAUGUUUGAAUTT against V1ra2 | inactive: -0.756
88 | GGGUUUCUGUUUGAUUCCATT against Gria1 | active: 1.91
89 | CCUGAGCUUUGAUGUCGAUTT against Arg1 | inactive: -1.77
90 | CCUUGCACGACAUUUUACUTT against 5133401N09Rik | inactive: 0.637
91 | GGACUUCAUGGGUCGCUUUTT against Gstm2 | inactive: 0.177
92 | GGCCUUAGCAAAUAUGGCUTT against Nutf2 | inactive: 0.534
93 | GGCUCUCUGGCUUACUAAGTT against Mrpl37 | inactive: -0.936
94 | GGUUCAUUCGAUCUCAGACTT against Tmem10 | inactive: 1.32
95 | GGUAGAGGUUAAGACGAUCTT against C330023D02Rik | inactive: -0.997
96 | GCAGAAGUUAAGAUGCAUATT against Usf1 | inactive: -0.438
97 | GCAAUGUGACCAAGACAAUTT against 2610524G07Rik | inactive: -0.299
98 | GCAAUGGCAACAGAGAGGATT against Dos | inactive: -0.145
99 | GGAACGAGACUCAUCUUCUTT against Cic | active: 1.35
100 | GGAAGAUGGAGAUCAGACGTT against Foxd4 | inactive: -0.943
101 | CGGAUCCUACGGAAUUACGTT against Fpgs | inactive: -1.47
102 | GGCAUAGCCAUGAUGACAUTT against St5 | inactive: 0.702
103 | GGGUUAUGGACACUACCCATT against Tnk1 | inactive: 0.295
104 | CCUAUUUGUAGGUGAUGUUTT against B3gnt7 | inactive: -0.321

In another format: entries from further up.
CCUGAGCUUUGAUGUCGAUTT against Arg1
  z-score: inactive: -1.77
GCAGAAGUUAAGAUGCAUATT against Usf1
  z-score: inactive: -0.438
